Data: PMC4265741
These are yes or no findings as the source states them, for the method shown. For some of these results: In cells and extracts the contact can be indirect. Some binding calls cover weakened binding; strength is not graded here.

Amino acid sequences for entries named in this document (tags omitted).
UniProt Q08509: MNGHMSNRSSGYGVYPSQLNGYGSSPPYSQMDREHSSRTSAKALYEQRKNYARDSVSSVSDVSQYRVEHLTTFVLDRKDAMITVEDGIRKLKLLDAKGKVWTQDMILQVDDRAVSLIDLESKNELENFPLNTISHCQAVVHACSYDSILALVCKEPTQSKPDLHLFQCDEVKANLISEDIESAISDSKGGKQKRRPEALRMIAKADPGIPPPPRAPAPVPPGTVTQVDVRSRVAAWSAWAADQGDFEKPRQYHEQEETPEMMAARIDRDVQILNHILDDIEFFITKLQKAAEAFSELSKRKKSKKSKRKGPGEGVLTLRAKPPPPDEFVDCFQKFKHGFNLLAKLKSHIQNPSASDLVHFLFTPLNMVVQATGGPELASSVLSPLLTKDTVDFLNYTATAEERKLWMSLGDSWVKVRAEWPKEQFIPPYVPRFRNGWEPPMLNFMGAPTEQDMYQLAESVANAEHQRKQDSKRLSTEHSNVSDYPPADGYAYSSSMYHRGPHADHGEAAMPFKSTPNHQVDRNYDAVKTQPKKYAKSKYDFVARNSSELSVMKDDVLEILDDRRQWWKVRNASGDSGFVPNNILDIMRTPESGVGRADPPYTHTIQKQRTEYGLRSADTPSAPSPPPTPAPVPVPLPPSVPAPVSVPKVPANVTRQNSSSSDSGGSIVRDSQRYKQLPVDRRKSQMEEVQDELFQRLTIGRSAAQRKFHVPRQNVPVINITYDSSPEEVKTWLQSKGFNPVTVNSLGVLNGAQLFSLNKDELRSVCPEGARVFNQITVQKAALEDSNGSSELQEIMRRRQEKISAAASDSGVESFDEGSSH
UniProt Q12929: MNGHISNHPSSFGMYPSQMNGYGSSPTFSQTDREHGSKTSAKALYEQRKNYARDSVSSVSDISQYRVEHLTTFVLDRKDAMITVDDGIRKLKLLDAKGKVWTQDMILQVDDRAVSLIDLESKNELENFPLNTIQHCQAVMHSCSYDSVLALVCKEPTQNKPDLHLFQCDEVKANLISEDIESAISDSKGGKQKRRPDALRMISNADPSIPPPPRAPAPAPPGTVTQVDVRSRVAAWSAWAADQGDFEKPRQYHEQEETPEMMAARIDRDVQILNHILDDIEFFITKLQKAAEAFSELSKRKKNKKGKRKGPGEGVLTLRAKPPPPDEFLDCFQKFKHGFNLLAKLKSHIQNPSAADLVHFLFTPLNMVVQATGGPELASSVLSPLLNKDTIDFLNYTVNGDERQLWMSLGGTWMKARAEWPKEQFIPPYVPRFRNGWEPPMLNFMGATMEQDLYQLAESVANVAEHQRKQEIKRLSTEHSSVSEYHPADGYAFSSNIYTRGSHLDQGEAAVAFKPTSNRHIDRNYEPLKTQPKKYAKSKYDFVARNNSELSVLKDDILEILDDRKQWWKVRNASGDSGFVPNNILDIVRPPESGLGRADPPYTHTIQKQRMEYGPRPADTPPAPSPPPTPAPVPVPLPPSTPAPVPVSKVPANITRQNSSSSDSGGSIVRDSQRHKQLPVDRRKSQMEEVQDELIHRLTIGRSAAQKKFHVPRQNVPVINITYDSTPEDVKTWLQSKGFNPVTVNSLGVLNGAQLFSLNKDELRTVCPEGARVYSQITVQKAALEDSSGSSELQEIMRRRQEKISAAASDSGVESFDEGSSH

Experiments:
[1] = target: FAK WT (wild-type focal adhesion kinase re-expressed in FAK-/- SCC cells) (UniProt Q00944); assay: co-IP; 1 mg SCC cell lysate (FAK WT, FAK K1001A/K1003A or FAK-/-; RIPA or NP40 buffer) with 2 ug antibody or 10 ul agarose-conjugated antibody at 4 C overnight; beads washed three times in lysis buffer and once in 0.6 M LiCl; western blot; for the LC3B IP FAK-/- cells with Eps8 or non-targeting shRNA
FAK K1001A/K1003A = FAK K1001A/K1003A (UniProt Q00944); assay: as above
[2] = target: T1, FAK peptide a (amino acids 986-1010) (UniProt Q00944); assay: peptide or protein array; overlapping 25-mer FAK peptides spotted onto nitrocellulose, incubated with recombinant Eps8, washed, probed with anti-Eps8 antibody; alanine scan with one amino acid mutated at a time; both purified
T1 sequence (peptide): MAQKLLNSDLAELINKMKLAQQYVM

[3] = target: T2, FAK peptide b (amino acids 1029-1053) (UniProt Q00944); assay: as above
T2 sequence (peptide): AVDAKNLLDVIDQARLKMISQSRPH

Eps8, 97-kDa isoform (from UniProt Q08509 1-821)
binding [1]: binds
binding (FAK K1001A/K1003A): binds

recombinant Eps8 (Abnova) (from UniProt Q12929 1-822)
binding [2]: binds
binding [3]: binds
